# Values of other authors in patent US11285170B2, “Fractionated antimicrobial compositions and use thereof” (priority 2017, dated 2022).
# System: Pseudomonas aeruginosa AGR 18 and MR23 multiresistant
# Conditions: P. aeruginosa; cited from earlier work
row,Compound,Susceptibility breakpoint [µg/mL]
1,"C[C@H]1[C@H](NC(=O)/C(=N\OC(C)(C)C(=O)O)c2csc(N)n2)C(=O)N1S(=O)(=O)O [Aztreonam, aztreonam]",≤8
2,NCC[C@H](O)C(=O)N[C@@H]1C[C@H](N)[C@@H](O[C@H]2O[C@H](CN)[C@@H](O)[C@H](O)[C@H]2O)[C@H](O)[C@H]1O[C@H]1O[C@H](CO)[C@@H](O)[C@H](N)[C@H]1O [Amikacin],≤16
3,CC(C)(O/N=C(\C(=O)N[C@@H]1C(=O)N2C(C(=O)[O-])=C(C[n+]3ccccc3)CS[C@H]12)c1csc(N)n1)C(=O)O [Ceftazidime],≤8
4,CCN1CCN(C(=O)N[C@@H](C(=O)N[C@@H]2C(=O)N3[C@@H]2SC(C)(C)[C@@H]3C(=O)O)c2ccccc2)C(=O)C1=O [Piperacillin],≤16
5,"NC[C@H]1O[C@H](O[C@H]2[C@H](O)[C@@H](O[C@H]3O[C@H](CO)[C@@H](O)[C@H](N)[C@H]3O)[C@H](N)C[C@@H]2N)[C@H](N)C[C@@H]1O [Tobramycin, tobramycin]",≤4
